The target in this assay is T1, GST-Nd1-L (496-642) fusion protein (mouse) (UniProt Q920Q8).
T1 sequence: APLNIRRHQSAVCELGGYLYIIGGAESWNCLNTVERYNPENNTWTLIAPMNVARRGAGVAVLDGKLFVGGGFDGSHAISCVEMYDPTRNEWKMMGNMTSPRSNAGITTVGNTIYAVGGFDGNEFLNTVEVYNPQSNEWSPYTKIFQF
In words: pull-down; GST fusion proteins (40 ug) immobilised on glutathione-sepharose 4B beads, incubated 1 h at room temperature with HEK293 lysates overexpressing GFP- or 2FLAG-tagged proteins; washed three times with PBS; anti-GFP or anti-FLAG western blot; only the target purified. For orientation: In western blotting, separated proteins are transferred to a membrane and probed.

By UniProt entry, the sequences of proteins in these tests, tags left out.
UniProt O00522: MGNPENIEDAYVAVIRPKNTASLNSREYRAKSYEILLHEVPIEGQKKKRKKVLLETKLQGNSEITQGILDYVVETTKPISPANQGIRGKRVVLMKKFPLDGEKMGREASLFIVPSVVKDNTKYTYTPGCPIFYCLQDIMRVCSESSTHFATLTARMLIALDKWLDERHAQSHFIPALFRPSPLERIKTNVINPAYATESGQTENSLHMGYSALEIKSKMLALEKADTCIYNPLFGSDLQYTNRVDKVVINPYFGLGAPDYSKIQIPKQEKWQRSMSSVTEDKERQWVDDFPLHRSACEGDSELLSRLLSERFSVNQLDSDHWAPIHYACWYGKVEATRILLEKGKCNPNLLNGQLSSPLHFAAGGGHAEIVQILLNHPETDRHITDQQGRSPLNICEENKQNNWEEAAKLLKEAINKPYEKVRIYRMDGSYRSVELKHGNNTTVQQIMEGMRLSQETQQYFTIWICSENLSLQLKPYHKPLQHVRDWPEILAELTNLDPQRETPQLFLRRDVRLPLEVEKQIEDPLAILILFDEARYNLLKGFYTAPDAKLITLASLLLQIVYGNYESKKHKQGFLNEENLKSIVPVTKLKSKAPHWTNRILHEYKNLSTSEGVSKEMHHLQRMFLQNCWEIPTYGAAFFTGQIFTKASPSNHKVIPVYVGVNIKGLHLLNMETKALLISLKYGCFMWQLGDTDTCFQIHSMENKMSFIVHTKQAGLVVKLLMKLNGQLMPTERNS

No constants are given. Whether binding was seen depends on the method and setting. In cells and extracts the contact can be indirect. Some entries that bind do so weakly or less than the wild type. Tags and fused reporters may be left off the sequences shown.

“GFP-KRIT1A (EGFP-tagged full-length KRIT1A, pEGFP-KRIT1A) (from UniProt O00522 1-736)”: the binding entry is given as “binds”.

These data come from article PMC3435375.
